Counter-ions that a name gives are not always drawn.
Tests used:
[1] = Computed membrane potential and ion flux (Eq. 11 Goldman equation, Eq. 12); conditions: Lidocaine, relative to Cl−
Source text: Further, it is necessary to linearly approximate the concentration gradient or the electric potential gradient to solve equation 9. […] The potential difference across the skin has been considered for a single component system. […] Thus, a film potential can be calculated provided that the ion mobility (omega) and concentration (c) within the skin are known. The ion transport speed can then be found from the calculated film potential.

[2] = Delivery of aqueous drug solutions through skin in Franz cell (amount over time, flux)
Source text: An H-shaped Franz cell (FIG. 7) was used to evaluate the theory described herein. As shown, the Franz cell 28 includes a donor chamber 30a and a receiver chamber 30b. The donor chamber 30a contains an ionic active agent, which permeates through a membrane 32 to reach the receiver chamber 30b. A working electrode 34a was inserted in the donor chamber 30a, while a counter electrode 34b (i.e., reference electrode) was inserted in the receptor chamber 30b. It is possible to measure the electrical potential difference induced by the ionic diffusion/permeation and the concentration gradient thus established. […]

[3] = Membrane potential measurement across skin in H-shaped Franz cell; ion mobility relative to chloride; type: physicochemical, mouse; conditions: Lid-HCl 185 mM (5% Lidocaine); Cl− = 1
Source text: The electric potential difference shown here is between the outside and the inside of the skin. The “+/−” notation is opposite to that shown in Equation 12. […] It is thought that the membrane potential may be generated due to the influence of pH changes in solution. At 0.12 M, an electric potential difference is present that tends to promote migration of cations in the direction from the outside of the skin toward the inside due to an electric field within the skin. At other concentrations, however, an oppositely signed electric potential gradient occurs, which would tend to hamper the movement of Procaterol cations into the skin. It is thought that the electric potential differences develop due to the influence of protons, Procaterol cations, and chloride ions. The mobility of the Procaterol cations with respect to the mobility of chloride ions can be obtained based on the results of the membrane electrical potential measurement. […] These values have been used to make calculations. […] It can be seen that the migration speed of Procaterol ions is slow compared to that of chloride ions.

For `CCN(CC)CC(=O)Nc1c(C)cccc1C` [Lidocaine, Lidocaine HCl], the Mobility ratio w ([1]; printed concentration 0.000059 mol cm^3) was 0.45, the Mobility ratio w ([1]; printed concentration 0.000148 mol cm^3) was 0.67 and the Mobility ratio w ([1]; printed concentration 0.000296 mol cm^3) was 2.15. The Flux ([2]; 0.059 M Lidocaine HCl) was 3.8 μg h^−1 cm^−2, the “Amount of Lidocaine delivered” value ([2]; 0.059 M, time 0 hr) was 0 and the “Amount of Lidocaine delivered” value ([2]; 0.059 M, time 1 hr) was 122.5. For the same molecule, the “Amount of Lidocaine delivered” value ([2]; 0.059 M, time 3 hr) was 367.5, the “Amount of Lidocaine delivered” value ([2]; 0.059 M, time 5 hr) was 612.4 and the Flux ([2]; 0.148 M Lidocaine HCl) was 1.8 μg h^−1 cm^−2. For the same molecule, the “Amount of Lidocaine delivered” value ([2]; 0.148 M, time 0 hr) was 0, the “Amount of Lidocaine delivered” value ([2]; 0.148 M, time 1 hr) was 57.4 and the “Amount of Lidocaine delivered” value ([2]; 0.148 M, time 3 hr) was 172.2. The “Amount of Lidocaine delivered” value ([2]; 0.148 M, time 5 hr) was 287.0, the Flux ([2]; 0.296 M Lidocaine HCl) was 0.7 μg h^−1 cm^−2 and the “Amount of Lidocaine delivered” value ([2]; 0.296 M, time 0 hr) was 0. For the same molecule, the “Amount of Lidocaine delivered” value ([2]; 0.296 M, time 1 hr) was 23.9, the “Amount of Lidocaine delivered” value ([2]; 0.296 M, time 3 hr) was 71.8 and the “Amount of Lidocaine delivered” value ([2]; 0.296 M, time 5 hr) was 119.6. The “Mobility of ion (Lidocaine cation with respect to chloride ions)” value [3] was 0.67.
